From publication PMC4979527, “Post-translational allosteric activation of the P2X7 receptor through glycosaminoglycan chains of CD44 proteoglycans” (Cell Death Discovery, 2015)
No constants are given. Whether binding was seen depends on the method and setting. Binding seen in cells or lysates may run through a third protein. A result given as binding can be weak or reduced; the word gives no strength.

Biological target: P2X7 receptor (Chinese hamster (endogenous in CHO-K1))
Test: co-IP; 500 ug whole CHO-K1 cell lysate (non-denaturing buffer: 20 mM Tris pH 7.4, 2 mM EDTA, 137 mM NaCl, 1% Nonidet-P40) incubated with polyclonal anti-P2X7 antibody overnight at 4 C, protein A/G PLUS-Agarose 4 h at 4 C, washed three times with PBS; blotted with anti-P2X7 and anti-CD44

B1: soluble CD44 ectodomain (60-kDa form of CD44) (domain or fragment, UniProt P20944 23-269)
chain: QIDLNITCRYAGVFHVEKNGRYSISRTEAADLCQAFNSTLPTMDQMVMALSKGFETCRYGFIEGHVVIPRIQPNAICAANHTGVYILTSNTSHYDTYCFNASAPLEEDCTSVTDLPNSFEGPVTITIVNRDGTRYSKKGEYRTHQEDIDASNTTDDDVSSGSSSEKSTSGGYVFHTYLPTIHSTADQDDPYFIGSTMATRDQDSSMDPRGNSLTVTDGSKLTEHSSGNQDSGLNSTSRPGGKPRVPE
In the case of B1, the binding is reported as “binds”.
